Reference: PMC4275594
Changes are numbered by the printed parent chain. These are yes or no findings as the source states them, for the method shown. Where a sequence is shown, tags or fusion partners need not be part of it.

Amino acid sequences for entries named in this document (tags omitted). Residues count along the entry.
UniProt Q14116, residues 37-193: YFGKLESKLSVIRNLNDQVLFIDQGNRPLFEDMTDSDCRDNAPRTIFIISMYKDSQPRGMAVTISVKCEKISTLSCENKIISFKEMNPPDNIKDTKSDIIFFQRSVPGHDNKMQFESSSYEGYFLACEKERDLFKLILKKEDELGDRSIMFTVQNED

Key:
[1] = target: T1, IL-18Rβ Y212A, C-terminal 6xHis tagged extracellular domains (residues 15-356), for SPR (human) (UniProt O95256); test: SPR; BIAcore 3000, 25 °C, C-terminal 6xHis IL-18Rβ immobilised (~100 RU) on an NTA sensor chip, un-tagged IL-18Rα saturated with 500 nM IL-18 as analyte in HBS-P; both purified
T1 sequence: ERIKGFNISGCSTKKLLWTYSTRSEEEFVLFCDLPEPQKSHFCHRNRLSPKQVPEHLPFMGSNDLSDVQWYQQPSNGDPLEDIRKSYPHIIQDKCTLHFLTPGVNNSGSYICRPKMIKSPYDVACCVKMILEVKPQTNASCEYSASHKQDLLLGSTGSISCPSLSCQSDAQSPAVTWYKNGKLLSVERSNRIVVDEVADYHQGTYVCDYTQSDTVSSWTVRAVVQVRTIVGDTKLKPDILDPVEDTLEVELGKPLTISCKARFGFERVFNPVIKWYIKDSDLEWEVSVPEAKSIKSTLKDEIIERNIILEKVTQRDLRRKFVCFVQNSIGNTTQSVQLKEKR

[2] = target: T2, human IL-18 receptor alpha extracellular domain (residues 20-329), C-terminal 6xHis, R123A-T126A-S127A-K128A (human) (UniProt Q13478); test: SPR; BIAcore 3000, 25 °C; C-terminal 6xHis IL-18Rα (wild type or mutant) immobilised at about 200 RU on a Ni-NTA sensor chip; IL-18 (wild type or mutant) injected as analyte in HBS-P (10 mM HEPES-Na pH 7.4, 150 mM NaCl, 0.01% P-20), 30 µl/min, 180 s association, 360 s dissociation; triplicate; both purified
T2 sequence: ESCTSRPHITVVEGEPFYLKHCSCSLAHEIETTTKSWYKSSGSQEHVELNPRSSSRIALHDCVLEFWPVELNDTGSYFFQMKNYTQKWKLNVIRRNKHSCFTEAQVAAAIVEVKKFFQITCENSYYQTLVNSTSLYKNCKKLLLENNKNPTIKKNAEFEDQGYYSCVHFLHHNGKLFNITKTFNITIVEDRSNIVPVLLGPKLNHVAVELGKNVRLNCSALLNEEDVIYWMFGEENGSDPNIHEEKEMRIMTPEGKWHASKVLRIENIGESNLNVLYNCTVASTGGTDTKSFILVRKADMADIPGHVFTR

[3] = target: T3, human IL-18 receptor alpha extracellular domain (residues 20-329), C-terminal 6xHis, E253A-E254A-E263A (human) (UniProt Q13478); test: as above
T3 sequence: T2 sequence with A104R, A107T, A108S, A109K, E234A, E235A, E244A

[4] = target: T4, human IL-18 receptor alpha extracellular domain (residues 20-329), C-terminal 6xHis, T23A-R25A-H27A-T29A (human) (UniProt Q13478); test: as above
T4 sequence: T2 sequence with T4A, R6A, H8A, T10A, A104R, A107T, A108S, A109K

| binding [1] | binding [2] | binding [3] | binding [4] | Substance |
| --- | --- | --- | --- | --- |
| no binding |  |  |  | IL-18 WT/IL-18Rα WT complex (SPR analyte) (from UniProt Q14116 37-193; Q13478 20-329) |
|  | no binding | no binding | no binding | human interleukin-18, mature (residues 1-157), wild type (from UniProt Q14116 37-193) (ligand) |
